PubChem BioAssay AID2685 (National Center for Advancing Translational Sciences (NCATS), 2010)
About 2,100 (0.66%) of roughly 320,000 compounds were called active. The shares of active, inactive and inconclusive entries below differ from those in the screen. Calls follow the shape of the dose curve; as a rule, active = well fitted inhibition curve with a large enough effect in the signal ratio, with a control signal flat (not every such curve was filed as active); inconclusive = small, poorly fitted or top-dose-only effect, or effect the other way, or a change in a side signal; inactive = flat fitted curve, though single readings scatter; the % refers to the signal ratio. Where the call is inconclusive, the potency comes from a doubtful curve fit.

Assay: qHTS Assay for Lipid Storage Modulators in Drosophila S3 Cells
Conditions: BODIPY lipid droplet fluorescence, 18-24 h, cells fed with added oleic acid; lipid storage change, negative = inhibition: at 46.1 µM (top of the series) unless noted
Outline: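 Drosophila S3 cells loaded with oleic acid (400 uM, as added) and compounds at several concentrations; lipid droplets imaged by 488-nm laser-scanning cytometry, 500–530 nm intensity and object ratio to cell channel. Percent activity normalized to 20 uM Triacsin C.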
% is scaled to controls: 0 for no effect and ±100 for the full control effect; potency is read from the fitted curve at half-maximal effect.

Structure (SMILES)	Potency	lipid storage change, negative = inhibition
CCSc1nnc(N(CCC(=O)O)CCC(=O)O)s1	inconclusive: 1640 nM [falling, full curve, poor fit]	–
O=S(=O)(NC1CCCCC1N1CCN(c2cccc(Cl)c2)CC1)c1ccccc1 (configuration not stated)	–	inconclusive: 12.9%
Cn1cc([N+](=O)[O-])c(C(=O)Nc2cc(Oc3ccccc3)cc([N+](=O)[O-])c2)n1	inconclusive: 29100 nM [activator, single point]	–
CCN1CCN(Cc2ccc(OCc3ccccc3)c(OC)c2)CC1	–	inactive
COC(=O)c1sccc1NC(=O)Nc1cccc(C(C)=O)c1	–	inconclusive: -1.29%
CC(=O)N1CCc2c(sc(NC(=O)C3CCN(S(=O)(=O)c4cccs4)CC3)c2C(N)=O)C1	–	inconclusive
COCCn1c(SCC(=O)N2CCCC2=O)nc2sc(C)c(C)c2c1=O	–	inconclusive
CC(C(=O)N1CCN(C=O)CC1)N1C(=O)c2ccccc2C1=O (configuration not stated)	–	inconclusive: -13.1%
CN1C(=O)CSC1=Nc1ccc(Br)cc1	–	inconclusive: 20.1%
O=C(Nc1ccc(N2CCCC2)c(Cl)c1)c1cccc(-c2cc3ccccc3oc2=O)c1	inconclusive: 23100 nM [activator, partial curve, poor fit]	–
Cc1ccc(NC(=O)c2cc([N+](=O)[O-])ccc2N2CCOCC2)cc1C	–	inconclusive: -100%
CC(=O)Nc1ccc(S(=O)(=O)Nc2cccc(-c3ccc4nncn4n3)c2)cc1	active: 731 nM	–
CS(=O)(=O)c1ccc2nc(NC(=O)c3cccc(Cl)c3)sc2c1	–	inactive
CCc1nnc(NS(=O)(=O)c2ccc(NC(=O)c3ccc(Cl)cc3)cc2)s1	–	inconclusive: 4.33%
COc1ccc(S(=O)(=O)NC(CC(=O)NCc2ccc3c(c2)OCO3)c2ccco2)cc1 (configuration not stated)	–	inconclusive: -24.9%
COc1ccc(-c2noc(Cc3ccc(Cl)cc3)n2)cc1OC	–	inconclusive: 42.5%
CC1(C)N=c2ccc([N+](=O)[O-])c(N)c2=[N+]1[O-]	–	inconclusive: -56%
O=C(NCCc1ccccc1)C(c1ccccc1)N(C(=O)c1csnn1)C1CC1 (configuration not stated)	–	inconclusive: 22.6%
C=CCn1c(SCc2ccc(Cl)cc2)nc2c1c(=O)[nH]c(=O)n2C	inconclusive: 14600 nM [rising, partial curve]	–
Cc1cc(Br)ccc1NC(=O)C1CCN(C(=O)c2ccco2)CC1	–	inconclusive: 194%
COc1ccc(-c2cn3cc(Br)cnc3n2)cc1	–	inconclusive: -16%
N/C(=N\OC(=O)CCCc1ccccc1)c1ccccn1	–	inconclusive: 27.2%
O=C(Nc1ccccc1N1CCN(c2ccc(F)cc2)CC1)c1ccccc1	inconclusive: 29100 nM [activator, single point]	–
Cc1ccc(C)n1-c1ccc(-c2ccn[nH]2)cc1	–	inconclusive: 2.34%
Cn1cccc1C(=O)NC(=O)COC(=O)CNS(=O)(=O)c1ccc(Br)cc1	–	inconclusive: -12.9%
COc1ccc(/C(O)=C2/C(=O)C(=O)N(CCCN(C)C)C2c2cccnc2)cc1 (configuration not stated)	inconclusive: 4.6 nM [falling, full curve, poor fit]	–

Structure (SMILES)	Potency	lipid storage change, negative = inhibition
COc1cccc(CNC(=O)C2CCCN(S(=O)(=O)c3cnc[nH]3)C2)c1 (configuration not stated)	–	inconclusive: 4.68%
COc1ccc(CCNC(=O)c2cc(-c3cccs3)on2)cc1OC	–	inconclusive: 48.6%
O=C(COC(=O)c1ccc(S(=O)(=O)N2CCCC2)cc1)NCc1ccccc1	–	inconclusive: -42.5%
COc1ccc(Cn2c(=O)[nH]c3cc(C(=O)NCCCN4CCCCC4)ccc3c2=O)cc1	inconclusive: 7310 nM [activator, full curve, poor fit]	–
CCN1CCN(C(=O)CN2C(=O)COc3ccc(S(=O)(=O)N4CCOCC4)cc32)CC1	–	inconclusive: 56.5%
COc1cc(OC)cc(-c2c(C#Cc3ccsc3)c3cc(Br)ccc3n2C)c1	inconclusive: 20600 nM [falling, single point]	–
Cc1ccc(/C(N)=N/OC(=O)c2ccc3ccccc3c2)cc1	inconclusive: 51.7 nM [falling, full curve, poor fit]	–
COc1cccc(NC(=O)COC(=O)Cn2c(C)csc2=O)c1	inconclusive: 82 nM [falling, full curve, poor fit]	–
Cn1c(CCN2CCN(c3ccccn3)CC2)nc2cc(NC(=O)COc3ccccc3)ccc21	inconclusive: 6510 nM [rising, single point]	–
COc1cccc(OCc2cc(C(=O)N(C)Cc3nc(C)cs3)no2)c1	–	inconclusive: -32.9%
CC(=O)c1ccc(OCC(=O)N2CCN(S(=O)(=O)c3ccc(Br)s3)CC2)cc1	–	inconclusive: -39.2%
CCOc1ccc(S(=O)(=O)N(C)C2CCCCC2)cc1	–	inconclusive: -10.1%
Cc1csc(N(C(=O)c2ccc(S(=O)(=O)N(C)C)cc2)c2ccccc2)n1	inconclusive: 1300 nM [rising, partial curve]	–
COc1ccc(S(=O)(=O)N(Cc2cc3cc(C)ccc3[nH]c2=O)CC2CCCO2)cc1 (configuration not stated)	–	inconclusive: 208%
N/C(=N\OC(=O)COc1ccc(Cl)cc1Br)c1ccncc1	–	inconclusive: -22% [at 9.22 µM]
Cc1csc(NC(=O)c2ccc(C)c(S(=O)(=O)N3CCOCC3)c2)n1	–	inconclusive: -29.9%
COC(=O)c1c(C)[nH]c(C(=O)CN2C(=O)NC3(CCOc4ccccc43)C2=O)c1C (configuration not stated)	–	inactive
CCOc1ccc(S(=O)(=O)Nc2ccn(C)n2)cc1	inconclusive: 6510 nM [activator, single point]	–
CC(C)c1ccccc1NC(=O)COC(=O)CCN1C(=O)/C(=C\C=C\c2ccccc2)SC1=S	–	inconclusive: -42.2%
COc1ccc(S(=O)(=O)NCCc2cc3ccc(C)c(C)c3[nH]c2=O)cc1	–	inconclusive: -145%
O=C(COc1ccc2c3c(c(=O)oc2c1)CCC3)NCc1ccccn1	–	inconclusive: -9.22%
COc1ccc(-c2cc(C(=O)Nc3c(C)nn(Cc4ccc(Cl)cc4)c3C)no2)cc1	inconclusive: 23100 nM [cytotoxic, partial curve]	–
O=c1nc(C(F)(F)F)nc2ccccn12	–	inconclusive: 55.8%
CCN(CC)C(=O)CSc1nc2c(sc(=S)n2-c2ccccc2OC)c(=O)n1-c1ccccc1	–	inconclusive: -13.4%
CC(c1nccs1)N(C)C(=O)CCc1nnc(CCc2ccccc2)o1 (configuration not stated)	inconclusive: 731 nM [falling, single point]	–
O=C(O)c1nn(CC(=O)N2CCN(c3ncc(C(F)(F)F)cc3Cl)CC2)c(=O)c2ccccc12	active: 820 nM	–

Structure (SMILES)	Potency	lipid storage change, negative = inhibition
COc1ccc(NC(=O)C2CCCN(S(=O)(=O)c3cccc4nonc34)C2)cc1 (configuration not stated)	inconclusive: 2310 nM [rising, partial curve]	–
Cc1ccc(NC(=O)CCCNC(=O)c2ccc(Cl)cc2)nc1	–	inconclusive: 0.237%
Cc1ccc(NC2SC(=O)N(Cc3cccc(C(=O)O)c3)C2=O)c(C)c1 (configuration not stated)	–	inconclusive: 28.2%
O=C(c1ccccc1)c1ccc(OCC(O)CNCc2ccc(Cl)cc2)cc1 (configuration not stated)	inconclusive: 29100 nM [cytotoxic, single point]	–
CCc1nc(NC2CCCCC2)c(C#N)c2c1COC(C)(C)C2	inconclusive: 731 nM [falling, single point]	–
Cc1cccc(/C=C2\CCC(C3CCCC3)C2=O)c1 (configuration not stated)	inconclusive: 5170 nM [activator, single point]	–
NC(=S)N/N=C/c1ccc(-c2cccc([N+](=O)[O-])c2)o1	–	inconclusive: 67.1%
COC(=O)c1cc(NC(=O)Nc2ccccc2)ccc1Cl	–	inconclusive: 19.5%
COc1cccc(NS(=O)(=O)c2ccc3c(c2)C2C=CCC2C(c2ccc(C(=O)O)cc2)N3)c1 (configuration not stated)	–	inconclusive: 3.2%
CCC1CCCCN1CCNC(=O)c1[nH]c(C)c(C(C)=O)c1C (configuration not stated)	–	inconclusive: -16.7%
O=C(COC(=O)c1c(Cl)cccc1Cl)NC1CCCCC1	–	inactive
COC(=O)CSc1nc(-c2ccccc2)cc(-c2ccco2)c1C#N	–	inconclusive: 15.9%
COc1cc(NS(C)(=O)=O)c(OC)cc1NC(=O)c1ccccc1	–	inconclusive: 13.5%
CCOc1ccc(C(=O)NCC(=O)NCCCSc2ccccc2)cc1OCC	inconclusive: 92 nM [activator, full curve, poor fit]	–
Cc1cc(C)c(OCC(=O)Nc2nc3ccccc3[nH]2)c(C)c1	–	inconclusive: 26.4%
COc1cc(C(=O)NC(C)Cc2cccs2)cc(OC)c1OC (configuration not stated)	–	inconclusive: 3.1%
Cn1cc(-c2ccc(Cl)cc2)cc(C#N)c1=O	–	inactive
Cc1nn(-c2ccccc2)c(C)c1C(=O)OCC(=O)c1c(N)n(CC(C)C)c(=O)n(C)c1=O	inconclusive: 580 nM [activator, full curve, poor fit]	–
C/C(=N\Nc1nc2ccccc2c(=O)n1O)c1ccco1	–	inconclusive: -26%
COc1cc(/C=C/C(=O)O)ccc1OS(=O)(=O)c1c(C)c(C)cc(C)c1C	–	inconclusive: 13%
O=C(NCc1ccc(Cl)cc1)c1cc([N+](=O)[O-])ccc1Cl	–	inactive
CC1(C)Cn2c(nnc2-c2ccccc2)S1	inconclusive: 461 nM [falling, full curve]	–
CCNc1nc(N)nc(Oc2ccc(OCCOc3ccc(Cl)cc3Cl)nn2)n1	inconclusive: 11600 nM [activator, partial curve]	–
O=C(/C=C/c1ccc(O)c(O)c1)NC(=O)c1ccccc1O	–	inconclusive: -68.4%
O=C(CSc1nnc(-c2ccncc2)n1Cc1ccccc1)Nc1nccs1	–	inconclusive: -7.53%

No new results follow: an excerpt of the list.
Structure (SMILES)	Potency	lipid storage change, negative = inhibition
O=C(COC(=O)c1c(Cl)cccc1Cl)NC1CCCCC1	–	inactive
COC(=O)CSc1nc(-c2ccccc2)cc(-c2ccco2)c1C#N	–	inconclusive: 15.9%
COc1cc(NS(C)(=O)=O)c(OC)cc1NC(=O)c1ccccc1	–	inconclusive: 13.5%
CCOc1ccc(C(=O)NCC(=O)NCCCSc2ccccc2)cc1OCC	inconclusive: 92 nM [activator, full curve, poor fit]	–

Complete entries, looked up by structure. Order of values: Potency	lipid storage change, negative = inhibition
`Cc1cccc(/C=C2\CCC(C3CCCC3)C2=O)c1` (configuration not stated) reads inconclusive: 5170 nM [activator, single point]	–
`COc1cc(NS(C)(=O)=O)c(OC)cc1NC(=O)c1ccccc1` reads –	inconclusive: 13.5%
